Laboratory results: PubChem BioAssay AID1259331 (Drosophila RNAi Screening Center, 2017)

Assay: 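Genes whose knock-down changes cell survival under toxic zinc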 (primary screen)
System: Drosophila S2R+ cells
Reagent: long dsRNA against Drosophila genes
Time to read-out: 5 days (4 days knock-down, then 1 day zinc)
Treatment: zinc chloride at 15 mM final level for 1 day
Detection: 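Luminescent ATP assay standing in for viability; Z score is the mean over three replicate plates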
Direction: mean Z score: higher = more ATP than other wells, better survival under zinc; ATP luminescence: higher = more ATP, more viable cells
Active means: 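a reagent is called a hit when its Z score is above 1.5 or below -1.5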
Calls: active = hit, ATP up or down; inactive = not a hit
Here is one part, drawn at random, of about 3,100 reagents. 126 of all reagents (4.1%) count as active. 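Calls are per reagent; zinc was so toxic that few knock-downs lowered ATP further, so most hits raise ATP.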 Raw values vary from plate to plate and are shown uncorrected. Unmarked entries are inactive. Names joined by + are all predicted targets of the reagent. Not stated in the record: the amount of reagent.

gene | amplicon | mean Z score | ATP luminescence, replicate 1 | ATP luminescence, replicate 2
Atet | DRSC00263 | 0.000899 | 54819 | 40056
Atet | DRSC39890 | -0.374 | 46880 | 51818
Ctl1 | DRSC08303 | 1.04 | 92378 | 76976
Ctl1 | DRSC39447 | 0.0951 | 66737 | 30662
Tsp26A | DRSC03135 | -0.0283 | 48372 | 41805
frac | DRSC10867 | -0.321 | 29396 | 29119
frac | DRSC29239 | 0.632 | 72661 | 69567
TrissinR | DRSC25084 | -0.594 | 52024 | 52463
TrissinR | DRSC26283 | 0.456 | 65657 | 62776
Orco | DRSC12358 | -0.485 | 66446 | 49572
Orco | DRSC27061 | -1.08 | 45543 | 35890
santa-maria | DRSC00994 | -0.151 | 40262 | 40896
santa-maria | DRSC02180 | -0.0185 | 54304 | 57717
LpR2 | DRSC13726 | -0.146 | 43194 | 46331
LpR2 | DRSC13728 | -0.0591 | 75964 | 63046
LpR2 | DRSC25588 | 0.196 | 64696 | 53327
wun2 | DRSC07566 | -0.135 | 58144 | 69716
wun2 | DRSC36974 | -0.00922 | 47909 | 46880
wun2 | DRSC36975 | 0.65 | 55736 | 59569
CG8785 | DRSC07266 | -0.261 | 26805 | 31296
path | DRSC10361 | 0.858 | 86136 | 88795
path | DRSC39838 | 0.645 | 61815 | 69052
Lcch3 + Ranbp16 | DRSC39860 | -0.484 | 52675 | 48149
CG3216 | DRSC04347 | -0.527 | 43341 | 40176
CG3216 | DRSC24945 | -0.192 | 58574 | 58300
COX7AL | DRSC25198 | -1.81 (active) | 32136 | 34729
CG5342 | DRSC15776 | -0.535 | 40210 | 51389
PGAP2 | DRSC00632 | 0.48 | 62433 | 63582
PGAP2 | DRSC28496 | 0.165 | 64439 | 63427

Entries listed so far whose target name starts with W or w (3):
gene | amplicon | mean Z score | ATP luminescence, replicate 1 | ATP luminescence, replicate 2
wun2 | DRSC07566 | -0.135 | 58144 | 69716
wun2 | DRSC36974 | -0.00922 | 47909 | 46880
wun2 | DRSC36975 | 0.65 | 55736 | 59569
